The values below come from publication PMC10797690, “The SIRT3-ATAD3A axis regulates MAM dynamics and mitochondrial calcium homeostasis in cardiac hypertrophy” (International Journal of Biological Sciences, 2024).

Amino acid sequences for entries named in this document (tags omitted). Residues count along the entry.
UniProt P29994: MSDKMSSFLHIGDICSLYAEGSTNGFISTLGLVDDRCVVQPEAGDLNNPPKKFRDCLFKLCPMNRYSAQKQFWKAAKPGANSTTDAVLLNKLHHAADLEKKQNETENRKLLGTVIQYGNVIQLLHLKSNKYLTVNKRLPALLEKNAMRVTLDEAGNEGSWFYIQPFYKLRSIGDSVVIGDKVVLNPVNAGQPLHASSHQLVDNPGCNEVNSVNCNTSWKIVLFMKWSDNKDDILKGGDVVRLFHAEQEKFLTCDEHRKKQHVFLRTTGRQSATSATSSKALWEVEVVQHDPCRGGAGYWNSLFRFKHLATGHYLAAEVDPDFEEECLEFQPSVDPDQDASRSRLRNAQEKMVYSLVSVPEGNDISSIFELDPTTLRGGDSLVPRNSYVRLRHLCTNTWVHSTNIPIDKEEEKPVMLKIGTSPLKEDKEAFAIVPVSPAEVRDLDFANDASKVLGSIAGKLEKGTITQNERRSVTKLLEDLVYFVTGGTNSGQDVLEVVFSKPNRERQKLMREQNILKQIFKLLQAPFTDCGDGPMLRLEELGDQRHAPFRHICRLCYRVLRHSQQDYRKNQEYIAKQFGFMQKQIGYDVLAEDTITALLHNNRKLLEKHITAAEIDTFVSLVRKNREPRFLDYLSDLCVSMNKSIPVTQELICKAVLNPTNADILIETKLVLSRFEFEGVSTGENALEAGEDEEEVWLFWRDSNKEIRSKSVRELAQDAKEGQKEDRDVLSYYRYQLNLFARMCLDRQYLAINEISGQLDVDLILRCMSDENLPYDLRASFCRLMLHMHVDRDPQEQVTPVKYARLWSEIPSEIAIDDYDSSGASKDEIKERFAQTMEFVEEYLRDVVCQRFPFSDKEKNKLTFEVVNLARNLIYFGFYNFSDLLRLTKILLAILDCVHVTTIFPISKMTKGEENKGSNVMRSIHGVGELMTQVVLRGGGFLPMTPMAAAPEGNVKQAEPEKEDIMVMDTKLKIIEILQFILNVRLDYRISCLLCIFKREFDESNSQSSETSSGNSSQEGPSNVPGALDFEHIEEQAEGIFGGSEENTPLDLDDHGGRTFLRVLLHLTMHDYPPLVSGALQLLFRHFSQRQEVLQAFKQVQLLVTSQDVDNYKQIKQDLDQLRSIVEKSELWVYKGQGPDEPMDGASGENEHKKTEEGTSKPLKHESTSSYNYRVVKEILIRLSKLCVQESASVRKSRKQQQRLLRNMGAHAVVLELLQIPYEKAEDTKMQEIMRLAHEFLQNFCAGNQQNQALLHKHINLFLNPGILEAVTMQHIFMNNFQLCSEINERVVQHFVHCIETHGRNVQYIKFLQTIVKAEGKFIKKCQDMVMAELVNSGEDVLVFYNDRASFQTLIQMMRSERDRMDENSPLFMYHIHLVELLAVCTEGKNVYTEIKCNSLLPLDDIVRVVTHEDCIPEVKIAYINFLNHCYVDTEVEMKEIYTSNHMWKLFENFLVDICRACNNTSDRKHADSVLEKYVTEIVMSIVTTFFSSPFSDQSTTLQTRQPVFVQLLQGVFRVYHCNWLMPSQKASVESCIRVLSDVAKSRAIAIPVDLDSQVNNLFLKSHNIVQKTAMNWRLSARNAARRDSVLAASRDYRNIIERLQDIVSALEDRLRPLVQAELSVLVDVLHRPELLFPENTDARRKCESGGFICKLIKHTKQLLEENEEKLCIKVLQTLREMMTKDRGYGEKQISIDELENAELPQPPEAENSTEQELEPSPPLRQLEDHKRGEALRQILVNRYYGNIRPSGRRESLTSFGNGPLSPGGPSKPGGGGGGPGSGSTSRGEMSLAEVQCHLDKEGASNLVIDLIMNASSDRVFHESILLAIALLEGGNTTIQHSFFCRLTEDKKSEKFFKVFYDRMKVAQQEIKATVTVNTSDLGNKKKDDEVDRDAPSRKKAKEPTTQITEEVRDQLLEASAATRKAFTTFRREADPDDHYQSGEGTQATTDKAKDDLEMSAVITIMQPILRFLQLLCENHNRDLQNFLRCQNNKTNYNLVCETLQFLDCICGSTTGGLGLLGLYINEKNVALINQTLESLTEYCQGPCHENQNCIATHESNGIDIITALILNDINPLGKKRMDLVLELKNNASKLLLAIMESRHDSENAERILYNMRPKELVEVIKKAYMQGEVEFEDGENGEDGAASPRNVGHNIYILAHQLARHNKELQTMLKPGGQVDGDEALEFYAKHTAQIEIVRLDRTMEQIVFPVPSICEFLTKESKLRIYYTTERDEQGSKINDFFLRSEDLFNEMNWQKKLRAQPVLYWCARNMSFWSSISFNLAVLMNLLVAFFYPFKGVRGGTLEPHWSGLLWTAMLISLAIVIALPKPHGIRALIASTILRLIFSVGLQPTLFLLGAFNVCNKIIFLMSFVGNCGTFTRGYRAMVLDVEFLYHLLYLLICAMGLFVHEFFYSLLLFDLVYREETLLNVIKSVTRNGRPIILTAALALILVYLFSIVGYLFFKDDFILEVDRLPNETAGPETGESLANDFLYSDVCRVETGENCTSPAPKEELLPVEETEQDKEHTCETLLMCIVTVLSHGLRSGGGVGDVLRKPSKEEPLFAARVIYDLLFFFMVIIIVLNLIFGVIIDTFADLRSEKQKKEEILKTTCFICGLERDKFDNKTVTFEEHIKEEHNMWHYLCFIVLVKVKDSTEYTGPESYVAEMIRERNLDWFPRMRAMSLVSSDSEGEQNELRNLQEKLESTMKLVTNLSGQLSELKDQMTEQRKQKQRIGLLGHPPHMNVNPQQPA
UniProt P48721, residues 47-679: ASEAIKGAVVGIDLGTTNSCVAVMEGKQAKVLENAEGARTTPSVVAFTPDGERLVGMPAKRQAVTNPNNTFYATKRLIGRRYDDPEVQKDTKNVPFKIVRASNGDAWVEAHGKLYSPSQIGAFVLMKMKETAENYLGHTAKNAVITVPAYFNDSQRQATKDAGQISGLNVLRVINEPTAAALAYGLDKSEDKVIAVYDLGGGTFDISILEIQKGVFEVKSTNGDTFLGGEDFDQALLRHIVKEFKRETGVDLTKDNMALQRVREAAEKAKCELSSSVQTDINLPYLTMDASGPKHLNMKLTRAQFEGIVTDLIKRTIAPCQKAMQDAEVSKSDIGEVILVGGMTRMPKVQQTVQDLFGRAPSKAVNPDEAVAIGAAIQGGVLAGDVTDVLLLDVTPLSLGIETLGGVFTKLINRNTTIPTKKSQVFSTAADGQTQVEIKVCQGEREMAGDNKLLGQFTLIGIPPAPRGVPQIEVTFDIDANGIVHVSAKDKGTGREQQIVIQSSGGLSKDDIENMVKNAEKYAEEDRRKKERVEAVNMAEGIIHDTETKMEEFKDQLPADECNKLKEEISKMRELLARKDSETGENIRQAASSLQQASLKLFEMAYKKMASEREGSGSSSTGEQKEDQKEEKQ
UniProt Q9Z2L0: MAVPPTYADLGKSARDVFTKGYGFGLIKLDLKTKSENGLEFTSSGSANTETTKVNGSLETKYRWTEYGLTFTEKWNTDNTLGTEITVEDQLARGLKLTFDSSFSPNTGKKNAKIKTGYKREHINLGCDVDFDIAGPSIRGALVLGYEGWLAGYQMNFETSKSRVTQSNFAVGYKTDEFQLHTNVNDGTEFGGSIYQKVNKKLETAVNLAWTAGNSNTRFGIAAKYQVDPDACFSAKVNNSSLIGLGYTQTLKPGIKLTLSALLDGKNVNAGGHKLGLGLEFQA

In assay [1] the target is T1, ATAD3A-Flag (UniProt Q3KRE0).
T1 sequence: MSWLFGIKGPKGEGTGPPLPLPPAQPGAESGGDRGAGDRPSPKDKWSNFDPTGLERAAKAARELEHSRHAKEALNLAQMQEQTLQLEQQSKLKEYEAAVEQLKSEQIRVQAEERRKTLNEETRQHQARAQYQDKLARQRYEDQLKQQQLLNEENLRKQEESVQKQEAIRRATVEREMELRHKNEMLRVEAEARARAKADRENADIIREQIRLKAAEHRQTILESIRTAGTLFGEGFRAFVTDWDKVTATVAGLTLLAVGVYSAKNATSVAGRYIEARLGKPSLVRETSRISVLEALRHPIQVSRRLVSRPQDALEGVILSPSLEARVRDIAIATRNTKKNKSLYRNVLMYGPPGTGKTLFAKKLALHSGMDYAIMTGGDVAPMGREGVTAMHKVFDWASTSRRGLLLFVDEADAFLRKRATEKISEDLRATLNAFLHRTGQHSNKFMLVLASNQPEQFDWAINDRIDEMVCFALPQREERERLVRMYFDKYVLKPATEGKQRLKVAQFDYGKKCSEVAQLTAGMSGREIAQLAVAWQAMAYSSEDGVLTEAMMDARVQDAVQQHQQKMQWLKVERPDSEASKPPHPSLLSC
As to the kind of experiment: co-IP; H9c2 cells transfected with ATAD3A-Flag or ATAD3A-K134Q, IP with anti-Flag antibody, Western blot; with 3-TYP or DMSO.

Assay [2] deals with T2, ATAD3A-K134Q (UniProt Q3KRE0).
T2 sequence: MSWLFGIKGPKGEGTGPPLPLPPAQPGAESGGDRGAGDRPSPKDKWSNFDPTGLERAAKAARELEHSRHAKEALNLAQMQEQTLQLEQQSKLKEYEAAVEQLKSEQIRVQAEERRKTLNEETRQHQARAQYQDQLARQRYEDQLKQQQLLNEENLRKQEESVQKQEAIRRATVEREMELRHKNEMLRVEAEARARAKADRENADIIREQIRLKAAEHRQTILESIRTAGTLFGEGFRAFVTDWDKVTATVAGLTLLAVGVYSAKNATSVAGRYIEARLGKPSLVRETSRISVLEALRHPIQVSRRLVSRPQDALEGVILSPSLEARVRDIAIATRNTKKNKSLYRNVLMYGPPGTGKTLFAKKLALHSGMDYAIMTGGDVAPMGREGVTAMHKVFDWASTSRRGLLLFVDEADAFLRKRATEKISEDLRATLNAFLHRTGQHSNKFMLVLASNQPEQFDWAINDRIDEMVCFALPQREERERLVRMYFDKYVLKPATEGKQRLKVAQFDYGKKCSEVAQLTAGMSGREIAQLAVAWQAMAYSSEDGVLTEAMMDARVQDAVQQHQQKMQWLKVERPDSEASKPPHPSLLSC
Described as above.

For assay [3], the target named is IP3 Receptor 1 (IP3R1), endogenous (rat (endogenous in cardiomyocytes, H9c2 cells and rat heart)) (UniProt P29994). As to the kind of experiment: co-IP; lysates of rat heart tissue (Ad-GFP or Ad-ATAD3A, ISO or normal saline), IP with anti-IP3R1 antibody, Western blot.
The target of assay [4] is T3, ATAD3A, endogenous in rat cardiomyocytes and rat cardiac tissue (rat (endogenous in NRCMs and rat heart)) (UniProt Q3KRE0).
T3 sequence: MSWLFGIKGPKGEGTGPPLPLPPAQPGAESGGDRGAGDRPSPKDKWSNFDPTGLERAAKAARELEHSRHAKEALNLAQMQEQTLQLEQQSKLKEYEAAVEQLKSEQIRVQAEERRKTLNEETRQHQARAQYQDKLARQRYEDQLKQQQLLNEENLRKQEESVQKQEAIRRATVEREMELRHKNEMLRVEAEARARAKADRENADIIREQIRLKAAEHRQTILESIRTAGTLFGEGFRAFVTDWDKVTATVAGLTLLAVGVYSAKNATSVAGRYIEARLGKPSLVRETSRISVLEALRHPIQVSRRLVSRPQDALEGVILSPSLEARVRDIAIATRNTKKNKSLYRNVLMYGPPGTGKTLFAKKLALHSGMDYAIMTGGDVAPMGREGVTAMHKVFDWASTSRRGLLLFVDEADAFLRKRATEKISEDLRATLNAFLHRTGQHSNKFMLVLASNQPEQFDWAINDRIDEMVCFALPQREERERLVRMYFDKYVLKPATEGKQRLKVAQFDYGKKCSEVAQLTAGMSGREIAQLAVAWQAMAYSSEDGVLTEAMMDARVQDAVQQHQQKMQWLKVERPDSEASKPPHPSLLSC
As to the kind of experiment: co-IP; endogenous proteins in cardiomyocytes, immunoprecipitated and revealed using the indicated antibodies.

Another assay has as its target T4, ATAD3A-K134E (UniProt Q3KRE0).
T4 sequence: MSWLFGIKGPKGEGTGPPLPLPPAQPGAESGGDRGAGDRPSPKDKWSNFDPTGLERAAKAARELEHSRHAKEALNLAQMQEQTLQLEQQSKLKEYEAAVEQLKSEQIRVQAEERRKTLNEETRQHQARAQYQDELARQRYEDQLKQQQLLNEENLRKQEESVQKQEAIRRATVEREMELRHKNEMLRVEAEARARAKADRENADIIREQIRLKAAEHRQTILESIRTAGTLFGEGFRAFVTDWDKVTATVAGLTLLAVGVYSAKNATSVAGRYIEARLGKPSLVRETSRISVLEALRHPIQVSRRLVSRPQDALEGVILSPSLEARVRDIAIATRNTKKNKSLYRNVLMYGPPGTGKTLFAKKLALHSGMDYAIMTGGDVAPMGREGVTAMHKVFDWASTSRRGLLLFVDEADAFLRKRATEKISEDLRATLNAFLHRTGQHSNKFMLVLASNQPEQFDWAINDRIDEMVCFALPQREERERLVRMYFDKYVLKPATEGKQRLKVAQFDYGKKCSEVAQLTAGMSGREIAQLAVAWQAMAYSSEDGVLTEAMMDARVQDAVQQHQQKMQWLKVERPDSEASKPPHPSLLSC
As to the kind of experiment: co-IP; H9c2 cells co-transfected with GFP-ATAD3A and ATAD3A-Flag or its mutants; immunoprecipitation with anti-Flag beads, immunoblot with anti-GFP.

Assay [5] deals with T2, ATAD3A-K134Q. In words: native gel or EMSA; native gel electrophoresis of total lysates of transfected H9c2 cells, NRCMs or cardiac tissue; ATAD3A oligomers; treatments: ISO, siSIRT3, SIRT3-KO, SZC-6.
Assay [6] deals with T1, ATAD3A-Flag. The description is as above.
Assay [7] deals with T3, ATAD3A, endogenous in rat cardiomyocytes and rat cardiac tissue (rat (endogenous in NRCMs and rat heart)). The assay is described as above.

No constants are given. Whether binding was seen depends on the method and setting. For part of these data: In cells and extracts the contact can be indirect. Some results given as binding are weak or reduced against the parent protein; the word gives no strength. For part of these data: Tags and fused reporters may be left off the sequences shown.

As to “glucose-regulated protein 75 (GRP75), endogenous (from UniProt P48721 47-679)”, the binding entry (with ATAD3A-Flag [1]; with ATAD3A-K134Q [2]; in assay [3]; in assay [4]) was “binds” throughout.
For the molecule “IP3 Receptor 1 (IP3R1), endogenous (from UniProt P29994 1-2750)”, the binding entry (in the assay with ATAD3A-Flag [1]; with ATAD3A-K134Q [2]; in assay [4]) was “binds” each time.
As for “voltage-dependent anion channel 1 (VDAC1), endogenous (from UniProt Q9Z2L0 1-283)”, the binding entry (with ATAD3A-Flag [1]; in the assay with ATAD3A-K134Q [2]; in assay [3]; in assay [4]) was “binds” each time.

B1: GFP-ATAD3A (protein, UniProt Q3KRE0 1-591)
chain: MSWLFGIKGPKGEGTGPPLPLPPAQPGAESGGDRGAGDRPSPKDKWSNFDPTGLERAAKAARELEHSRHAKEALNLAQMQEQTLQLEQQSKLKEYEAAVEQLKSEQIRVQAEERRKTLNEETRQHQARAQYQDKLARQRYEDQLKQQQLLNEENLRKQEESVQKQEAIRRATVEREMELRHKNEMLRVEAEARARAKADRENADIIREQIRLKAAEHRQTILESIRTAGTLFGEGFRAFVTDWDKVTATVAGLTLLAVGVYSAKNATSVAGRYIEARLGKPSLVRETSRISVLEALRHPIQVSRRLVSRPQDALEGVILSPSLEARVRDIAIATRNTKKNKSLYRNVLMYGPPGTGKTLFAKKLALHSGMDYAIMTGGDVAPMGREGVTAMHKVFDWASTSRRGLLLFVDEADAFLRKRATEKISEDLRATLNAFLHRTGQHSNKFMLVLASNQPEQFDWAINDRIDEMVCFALPQREERERLVRMYFDKYVLKPATEGKQRLKVAQFDYGKKCSEVAQLTAGMSGREIAQLAVAWQAMAYSSEDGVLTEAMMDARVQDAVQQHQQKMQWLKVERPDSEASKPPHPSLLSC
For the molecule B1, in the assay with ATAD3A-K134E, the binding result is “binds”.

B2: ATAD3A-K134Q (protein, UniProt Q3KRE0 1-591)
chain: MSWLFGIKGPKGEGTGPPLPLPPAQPGAESGGDRGAGDRPSPKDKWSNFDPTGLERAAKAARELEHSRHAKEALNLAQMQEQTLQLEQQSKLKEYEAAVEQLKSEQIRVQAEERRKTLNEETRQHQARAQYQDQLARQRYEDQLKQQQLLNEENLRKQEESVQKQEAIRRATVEREMELRHKNEMLRVEAEARARAKADRENADIIREQIRLKAAEHRQTILESIRTAGTLFGEGFRAFVTDWDKVTATVAGLTLLAVGVYSAKNATSVAGRYIEARLGKPSLVRETSRISVLEALRHPIQVSRRLVSRPQDALEGVILSPSLEARVRDIAIATRNTKKNKSLYRNVLMYGPPGTGKTLFAKKLALHSGMDYAIMTGGDVAPMGREGVTAMHKVFDWASTSRRGLLLFVDEADAFLRKRATEKISEDLRATLNAFLHRTGQHSNKFMLVLASNQPEQFDWAINDRIDEMVCFALPQREERERLVRMYFDKYVLKPATEGKQRLKVAQFDYGKKCSEVAQLTAGMSGREIAQLAVAWQAMAYSSEDGVLTEAMMDARVQDAVQQHQQKMQWLKVERPDSEASKPPHPSLLSC
On to B2, for which the binding result in the assay with ATAD3A-K134Q [5] is “binds”.

B3: ATAD3A-Flag (protein, UniProt Q3KRE0 1-591)
chain: MSWLFGIKGPKGEGTGPPLPLPPAQPGAESGGDRGAGDRPSPKDKWSNFDPTGLERAAKAARELEHSRHAKEALNLAQMQEQTLQLEQQSKLKEYEAAVEQLKSEQIRVQAEERRKTLNEETRQHQARAQYQDKLARQRYEDQLKQQQLLNEENLRKQEESVQKQEAIRRATVEREMELRHKNEMLRVEAEARARAKADRENADIIREQIRLKAAEHRQTILESIRTAGTLFGEGFRAFVTDWDKVTATVAGLTLLAVGVYSAKNATSVAGRYIEARLGKPSLVRETSRISVLEALRHPIQVSRRLVSRPQDALEGVILSPSLEARVRDIAIATRNTKKNKSLYRNVLMYGPPGTGKTLFAKKLALHSGMDYAIMTGGDVAPMGREGVTAMHKVFDWASTSRRGLLLFVDEADAFLRKRATEKISEDLRATLNAFLHRTGQHSNKFMLVLASNQPEQFDWAINDRIDEMVCFALPQREERERLVRMYFDKYVLKPATEGKQRLKVAQFDYGKKCSEVAQLTAGMSGREIAQLAVAWQAMAYSSEDGVLTEAMMDARVQDAVQQHQQKMQWLKVERPDSEASKPPHPSLLSC
B3: the binding result with ATAD3A-Flag [6] is “binds”.

B4: ATAD3A, endogenous in rat cardiomyocytes and rat cardiac tissue (protein, UniProt Q3KRE0 1-591)
chain: MSWLFGIKGPKGEGTGPPLPLPPAQPGAESGGDRGAGDRPSPKDKWSNFDPTGLERAAKAARELEHSRHAKEALNLAQMQEQTLQLEQQSKLKEYEAAVEQLKSEQIRVQAEERRKTLNEETRQHQARAQYQDKLARQRYEDQLKQQQLLNEENLRKQEESVQKQEAIRRATVEREMELRHKNEMLRVEAEARARAKADRENADIIREQIRLKAAEHRQTILESIRTAGTLFGEGFRAFVTDWDKVTATVAGLTLLAVGVYSAKNATSVAGRYIEARLGKPSLVRETSRISVLEALRHPIQVSRRLVSRPQDALEGVILSPSLEARVRDIAIATRNTKKNKSLYRNVLMYGPPGTGKTLFAKKLALHSGMDYAIMTGGDVAPMGREGVTAMHKVFDWASTSRRGLLLFVDEADAFLRKRATEKISEDLRATLNAFLHRTGQHSNKFMLVLASNQPEQFDWAINDRIDEMVCFALPQREERERLVRMYFDKYVLKPATEGKQRLKVAQFDYGKKCSEVAQLTAGMSGREIAQLAVAWQAMAYSSEDGVLTEAMMDARVQDAVQQHQQKMQWLKVERPDSEASKPPHPSLLSC
As for B4, the binding entry in assay [7] is on record as “binds”.
